Assay results: paper doi:10.1101/2023.07.24.550340
Where a chain is given by its changes, count along the chain named. These are yes or no findings as the source states them, for the method shown. In cells and extracts the contact can be indirect. Some results given as binding are weak or reduced against the parent protein; the word gives no strength. Tags and fused reporters may be left off the sequences shown.

What was measured:
[1] = target: T1, cellular retinoic acid-binding protein 2 (CRABP2) (human (endogenous in HEK293T)) (UniProt P29373); assay: cross-linking
T1 sequence: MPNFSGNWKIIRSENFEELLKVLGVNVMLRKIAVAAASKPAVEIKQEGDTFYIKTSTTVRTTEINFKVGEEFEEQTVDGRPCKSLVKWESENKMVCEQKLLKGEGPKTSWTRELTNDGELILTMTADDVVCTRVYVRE

[2] = target: T2, FLAG-NR2F1 G368D (human) (UniProt P10589); assay: co-IP
T2 sequence: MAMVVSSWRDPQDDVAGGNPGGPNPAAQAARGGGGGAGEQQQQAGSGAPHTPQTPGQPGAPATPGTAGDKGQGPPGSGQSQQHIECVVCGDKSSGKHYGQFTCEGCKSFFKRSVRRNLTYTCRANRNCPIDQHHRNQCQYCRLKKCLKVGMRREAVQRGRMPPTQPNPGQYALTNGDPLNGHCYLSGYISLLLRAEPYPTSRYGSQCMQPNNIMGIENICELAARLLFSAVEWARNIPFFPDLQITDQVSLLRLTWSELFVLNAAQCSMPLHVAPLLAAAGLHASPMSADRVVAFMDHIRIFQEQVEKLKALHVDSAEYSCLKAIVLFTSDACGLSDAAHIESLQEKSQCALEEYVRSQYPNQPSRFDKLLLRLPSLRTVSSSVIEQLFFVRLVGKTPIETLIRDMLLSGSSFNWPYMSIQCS

[3] = target: T3, FLAG-tagged NR2F1 wild type (FLAG-NR2F1-WT) (human) (UniProt P10589); assay: co-IP
T3 sequence: T2 sequence with D368G

[4] = target: FLAG-Q244AzF-NR2F1 with the pathogenic mutation L372P (human) (UniProt P10589); assay: cross-linking
[5] = target: T4, FLAG-Q244AzF-NR2F1 (human) (UniProt P10589); assay: cross-linking
T4 sequence (chain, p-azidophenylalanine (AzF) at position 244): T2 sequence with Q244F, D368G

[6] = target: FLAG-Q244AzF-NR2F1 with the pathogenic mutation L252P (human) (UniProt P10589); assay: cross-linking
[7] = target: T5, FLAG-AzF-NR2F1 G368AzF (human) (UniProt P10589); assay: cross-linking
T5 sequence (chain, p-azidophenylalanine (AzF) at position 368): T2 sequence with D368F

[8] = target: FLAG-Q244AzF-NR2F1 with the pathogenic mutation E318D (human) (UniProt P10589); assay: cross-linking
[9] = target: FLAG-Q244AzF-NR2F1 with the pathogenic mutation G395A (human) (UniProt P10589); assay: cross-linking
[10] = target: T6, FLAG-AzF-NR2F1 with AzF at position 318 (human) (UniProt P10589); assay: cross-linking
T6 sequence (chain, p-azidophenylalanine (AzF) at position 318): T2 sequence with E318F, D368G

FLAG-Q244AzF-NR2F1 with the pathogenic mutation E318D (from UniProt P10589 1-423)
binding [1]: binds

FLAG-Q244AzF-NR2F1 with the pathogenic mutation G368D (from UniProt P10589 1-423)
binding [1]: binds

FLAG-Q244AzF-NR2F1 with the pathogenic mutation G395A (from UniProt P10589 1-423)
binding [1]: binds

B1: Myc-tagged WT NR2F1 (Myc-NR2F1) (protein, UniProt P10589 1-423)
chain: T2 sequence with D368G
binding [2]: binds weakly
binding [3]: binds weakly
binding [4]: binds
binding [5]: binds
binding [6]: binds
binding [7]: binds
binding [8]: binds
binding [9]: binds

B2: Myc-tagged NR2F2 (Myc-NR2F2) (protein, UniProt P24468 1-414)
chain: MAMVVSTWRDPQDEVPGSQGSQASQAPPVPGPPPGAPHTPQTPGQGGPASTPAQTAAGGQGGPGGPGSDKQQQQQHIECVVCGDKSSGKHYGQFTCEGCKSFFKRSVRRNLSYTCRANRNCPIDQHHRNQCQYCRLKKCLKVGMRREAVQRGRMPPTQPTHGQFALTNGDPLNCHSYLSGYISLLLRAEPYPTSRFGSQCMQPNNIMGIENICELAARMLFSAVEWARNIPFFPDLQITDQVALLRLTWSELFVLNAAQCSMPLHVAPLLAAAGLHASPMSADRVVAFMDHIRIFQEQVEKLKALHVDSAEYSCLKAIVLFTSDACGLSDVAHVESLQEKSQCALEEYVRSQYPNQPTRFGKLLLRLPSLRTVSSSVIEQLFFVRLVGKTPIETLIRDMLLSGSSFNWPYMAIQ
binding [4]: binds
binding [5]: binds
binding [6]: binds
binding [7]: binds
binding [8]: binds
binding [9]: binds
binding [10]: binds

B3: FLAG-Q244AzF-NR2F1 (protein, UniProt P10589 1-423)
chain: T2 sequence with Q244F, D368G
modifications: p-azidophenylalanine (AzF) at position 244
binding [1]: binds
